Experiment [1] addresses Brc1(1-4) fragment in pGBKT7 (S. pombe) (UniProt Q10337). Briefly: two-hybrid.
For experiment [2], the target named is full length Brc1 in pGBKT7 (S. pombe) (UniProt Q10337). Briefly: two-hybrid.
For experiment [3], the target named is Brc1-G136A in pGBKT7 (S. pombe) (UniProt Q10337). Description: two-hybrid.
The target of experiment [4] is Brc1-R268K in pGBKT7 (S. pombe) (UniProt Q10337). Briefly: two-hybrid.
Experiment [5] concerns the target Brc1-T672A in pGBKT7 (S. pombe) (UniProt Q10337). Description: two-hybrid.
Experiment [6] concerns the target Brc1-W298F, P301G in pGBKT7 (S. pombe) (UniProt Q10337). Description: two-hybrid.
Experiment [7] has as its target full length Brc1, bait of the yeast two-hybrid screen (S. pombe) (UniProt Q10337). Briefly: two-hybrid.
A further experiment deals with TAP-Brc1 (S. pombe) (UniProt Q10337). Briefly: co-IP.
Experiment [8] addresses Brc1 fragment 1-2 in pGBKT7 (S. pombe) (UniProt Q10337). Briefly: two-hybrid.

Protein sequences, listed by entry. Tags and fused reporters are not part of them. Lines headed by an entry give the natural chain unless they say otherwise; changes in a name come on top.
UniProt Q10337: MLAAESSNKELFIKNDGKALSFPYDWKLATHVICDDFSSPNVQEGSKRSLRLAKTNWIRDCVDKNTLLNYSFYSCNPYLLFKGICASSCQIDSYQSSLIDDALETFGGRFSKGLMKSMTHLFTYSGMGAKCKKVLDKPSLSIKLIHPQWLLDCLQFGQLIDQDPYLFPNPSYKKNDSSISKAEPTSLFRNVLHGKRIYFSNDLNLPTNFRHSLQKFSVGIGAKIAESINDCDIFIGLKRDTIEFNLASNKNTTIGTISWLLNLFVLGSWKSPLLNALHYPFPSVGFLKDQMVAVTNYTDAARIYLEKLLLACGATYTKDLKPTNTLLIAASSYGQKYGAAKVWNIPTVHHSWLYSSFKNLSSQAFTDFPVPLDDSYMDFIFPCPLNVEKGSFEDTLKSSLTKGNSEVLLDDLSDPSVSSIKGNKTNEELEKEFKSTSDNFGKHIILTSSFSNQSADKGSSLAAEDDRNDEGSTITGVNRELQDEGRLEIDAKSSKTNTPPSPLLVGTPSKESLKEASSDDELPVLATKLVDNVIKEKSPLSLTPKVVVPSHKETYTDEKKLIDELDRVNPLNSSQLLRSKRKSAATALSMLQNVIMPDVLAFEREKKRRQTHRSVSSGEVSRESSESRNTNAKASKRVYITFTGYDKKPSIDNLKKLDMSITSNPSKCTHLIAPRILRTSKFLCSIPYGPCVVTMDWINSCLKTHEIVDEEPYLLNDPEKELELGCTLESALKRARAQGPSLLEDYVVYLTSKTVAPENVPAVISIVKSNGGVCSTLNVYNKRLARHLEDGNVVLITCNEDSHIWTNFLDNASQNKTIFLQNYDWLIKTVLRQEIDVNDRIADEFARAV

Results are given in words; binding and its absence hold for the method and conditions named. For part of these data: A result given as binding can be weak or reduced; the word gives no strength. For part of these data: In cells and extracts the contact can be indirect. For part of these data: Sequences can lack the tags named with a protein.

B1: Rhp18(R/M) fragment in pGADT7 (domain or fragment, UniProt O74747 1-202)
chain: MNELDATDPSDWNQTKIPSLKGLDSSLRCLICHEYFRAPLITSCSHTFCSFCIRDYLREHPMCPACRAPEQESRLRKNTILEEILESFKVIRPTLFEFLKVENVPKPVLQAPETVIAQDSASGDEEWEDDLASNSSPASIAKKTSRDSKKRKREDLVHCPACSNLVPHNQINQHLDSCLNSPSSPSSSSSPYKNKDNSKSNS
As to B1, the binding result in [1] and in experiment [2] was “binds” throughout.

B2: Rhp18 Mid zinc finger domain in pGADT7 (domain or fragment, UniProt O74747 111-202)
chain: APETVIAQDSASGDEEWEDDLASNSSPASIAKKTSRDSKKRKREDLVHCPACSNLVPHNQINQHLDSCLNSPSSPSSSSSPYKNKDNSKSNS
Take B2: the binding result in experiment [1], in [3], in experiment [4], in experiment [5], in [6] and in [2] was “binds” in each case.

B3: Rhp18, hits of the yeast two-hybrid screen (protein, UniProt O74747 1-387)
chain: MNELDATDPSDWNQTKIPSLKGLDSSLRCLICHEYFRAPLITSCSHTFCSFCIRDYLREHPMCPACRAPEQESRLRKNTILEEILESFKVIRPTLFEFLKVENVPKPVLQAPETVIAQDSASGDEEWEDDLASNSSPASIAKKTSRDSKKRKREDLVHCPACSNLVPHNQINQHLDSCLNSPSSPSSSSSPYKNKDNSKSNSLLSFKTDDDSITKRRLRSFNSADELPLKDRVRLPKLTYALLSESKIRSKLSEMGLPTDGHKQLLQRRHAKWVTLYNSNLDQKQPVSKRNLIRQLIDWERVQSKSIGVEKEKLGGGDWEKAYAEDFADLINRAKQSTTNKNDSLRNTAVESSTEPSTSNGFPATSVSPPLTIDLTNSQTGSDGPQS
On to B3, for which, in experiment [7], the binding result is listed as “binds”.

B4: 13myc-Rhp18 (protein, UniProt O74747 1-387)
chain: B3 chain
As to B4, the binding entry in the experiment with TAP-Brc1 (S. pombe) is on record as “binds”.

B5: full length Rhp18 in pGADT7 (protein, UniProt O74747 1-387)
chain: B3 chain
Consider B5, for which the binding entry in experiment [8] was “no binding”; in experiment [1], “binds”; in experiment [2], “binds”.

B6: Rhp18 N-terminal RING domain in pGADT7 (domain or fragment, UniProt O74747 1-117)
chain: MNELDATDPSDWNQTKIPSLKGLDSSLRCLICHEYFRAPLITSCSHTFCSFCIRDYLREHPMCPACRAPEQESRLRKNTILEEILESFKVIRPTLFEFLKVENVPKPVLQAPETVIA
On to B6, for which the binding entry in experiment [1] and in experiment [2] was “no binding” each time.

The values above are taken from publication doi:10.1101/150714.
